Data: PubChem BioAssay AID651599 (National Center for Advancing Translational Sciences (NCATS), 2012)
Inconclusive results, whose numbers are uncertain, are shown with a selection of clear calls. A potency beside an inconclusive call is a rough fit, not a confirmed value. Active and inactive are the calls of the source. The call rests on the fitted dose curve; in most records, active means well fitted inhibition curve with a large enough effect; inconclusive means small, poorly fitted or top-dose-only effect; inactive means no such curve, though single readings can be large or run the other way.

Protein sequences, listed by entry. Tags and fused reporters are not part of them. Lines headed by an entry give the natural chain unless they say otherwise; changes in a name come on top.
UniProt Q99816: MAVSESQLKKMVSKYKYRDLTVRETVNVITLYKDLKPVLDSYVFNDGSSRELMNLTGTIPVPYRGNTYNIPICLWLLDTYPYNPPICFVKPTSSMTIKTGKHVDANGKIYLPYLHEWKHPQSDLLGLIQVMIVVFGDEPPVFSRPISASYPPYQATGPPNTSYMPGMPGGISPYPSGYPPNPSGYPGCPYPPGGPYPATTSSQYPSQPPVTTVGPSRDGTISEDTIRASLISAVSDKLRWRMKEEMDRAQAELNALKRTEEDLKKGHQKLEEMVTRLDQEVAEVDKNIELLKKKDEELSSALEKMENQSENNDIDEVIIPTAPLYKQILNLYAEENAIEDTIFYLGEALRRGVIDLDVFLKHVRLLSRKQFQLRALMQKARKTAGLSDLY

Target: Tumor susceptibility gene 101 protein (Homo sapiens) (UniProt Q99816)
Experiment: qHTS Assay for Iinhibitors of HIV-1 Budding by Blocking the Interaction of PTAP/TSG101: Hit Validation in TR assay
Conditions: Tsg101 binding domain + Texas Red-labeled PTAP peptide, fluorescence polarization, 20 min; activity change, negative = inhibition: at 57.5 µM (top of the series)
From the text: Stages of the HIV-1 replication cycle, specifically virus assembly and release, provide underexploited targets for the development of novel antiviral inhibitors. The late stages of HIV-1 replication are mediated by the Gag precursor protein, Pr55Gag. Expression of Pr55Gag is both necessary and sufficient for the production of virus-like particles from Gag-expressing cells. The Gag protein hijacks key host proteins involved in endocytic machinery of the host cell to promote endosomal processing and viral budding. The budding process requires a direct interaction between a […] (PTAP) motif in the p6 domain of Gag and the cellular endosomal sorting protein known as Tsg101. In this way, the Gag PTAP motif promotes the host cells to recruit viral particles to the plasma membrane where the new viral particles are released, effectively turning the host cells into viral factories. A fluorescence anisotropy assay has been developed to quantitatively measure the PTAP-Tsg101 interaction which can be used to screen for inhibitors of this interaction.
This hit validation assay is similar to the primary assay but uses the Texas Red label instead of FITC.
NIH Molecular Libraries Probe Production Network [MLPCN]
NIH Chemical Genomics Center [NCGC]
PI Name: Dr. Eric Freed, NCI
Two uL of the Tsg101 binding domain in buffer (10 mM HEPES pH 7.5; 0.15 M NaCl, 0.01% Tween 20; 3 mM EDTA;0.1 mM TCEP) was dispensed into Greiner black MB 1536-well plates (final concentration 10 uM). Then, 23 nL of compounds or DMSO were delivered to each well using a pin tool. Finally, 2 uL of a TR-labeled peptide containing the PTAP motif (1) in the same buffer was dispensed (50 nM final concentration) and the binding was allowed to proceed for 20 min. at r.t. Fluorescent polarization was determined using TR excitation and polarized emission filters on a Perkin Elmer Viewlux.
Keywords: Tsg101, PTAP, Gag, HIV, fluorescent polarization, MLSMR, MLPCN, NIH Roadmap, qHTS, NCGC
On the % scale 0 is the no-effect control and ±100 the full control effect; potency means the concentration at half of the fitted maximal effect.

Row | SMILES | Potency | activity change, negative = inhibition
1 | CCOc1ccc(-n2c(O)c(C=Nc3ccc(N(CC)CC)cc3)c(=O)[nH]c2=O)cc1 | inconclusive: 29.1 µM [inhibitor, partial curve, poor fit] | 
2 | O=[N+]([O-])c1ccc(N2CCCCCC2)c2nonc12 | inconclusive: 41.1 µM [inhibitor, partial curve, poor fit] | 
3 | CN1CCC2(CC1)C(C#N)=C(N)NC(S)=C2C#N | inconclusive: 25.9 µM [inhibitor, partial curve, poor fit] | 
4 | Nc1ccc2ccc3cccc[n+]3c2c1 | active: 16.3 µM | 
5 | CCn1c(O)c(C=Nc2ccc(N3CCOCC3)cc2)c(=O)n(CC)c1=S | inconclusive: 0.103 µM [inhibitor, full curve, poor fit] | 
6 | O=c1cc(C(F)(F)F)c2cc3c4c(c2o1)CCCN4CCC3 |  | inactive: 12.3%
7 | COc1ccc(N2C(=O)NC(=O)/C(=C\c3cn(C)c4ccccc34)C2=O)cc1 |  | inactive: -82.3%
8 | COC(=O)[C@@]1(C#N)[C@@H]2C=CC(C(C)=O)=CN2[C@@H](C(N)=O)[C@@H]1c1ccc(F)cc1 |  | inconclusive: -30.6% [inhibitor]
